From US8802235B2, “Drug and imaging agent delivery compositions and methods” (priority 2012, dated 2014)

Test system: MCF-7 cells
Test: Cell growth inhibition (resazurin blue), MCF-7
Format: cell-based, human
Conditions: 72 hours after drug addition
Description: Plates were seeded with 3,000 cells/well in 100 μL of media (12 replicates/sample). Drug or conjugate solutions were applied after 24 hours. […] The in vitro anti-proliferative activities of cisplatin, NO-donating prodrug, and their star polymer-based conjugates, including acid-Pt, acid-NO, and combinational acid-Pt/acid-NO were evaluated in cell culture using a human breast cancer cell line, MCF-7. […] The acid-Pt appeared to be less cytotoxic than cisplatin in the cells. This is likely due to the slow release of the active drug, which was not unexpected for a sustained-delivery platform. One of the obstacles that has not yet been overcome in infusion chemotherapy is the poor tumor penetration and accumulation of small-molecule anti-cancer agents. Usually the majority of the chemotherapeutics have been cleared from systemic circulation, via the kidneys, before a significant concentration of the anti-cancer agent is achieved in the tumorigenic tissues. However, the acid-Pt and acid-NO nanoconjugates may greatly enhance the intratumoral drug concentration compared to the normal tissues due to the Enhanced Permeability and Retention effect (EPR), in which nanoformulations tend to penetrate tumors more effectively via leaky, fenestrated tumor blood vessels. […]

N.N.[Cl][Pt][Cl] [cisplatin] showed an IC50 of 20 ± 4 µM.
